Reference: patent US11090319B2, “Therapeutic uses of pharmaceutical compositions comprising cyclic boronic acid ester derivatives” (Melinta Subsidiary Corp., priority 2010, dated 2021)
At least one read-out could not be matched to a standard name with certainty.

Columns and labels:
EC1007 KPC-3 = type: cell-based, Escherichia coli
[1] = system: strains expressing class A ESBLs; type: cell-based
[2] = system: strains expressing class C and D enzymes; type: cell-based
EC1010 CMY-6 = assay: Tigemonam potentiation assay (MPC@4), class C and D; type: cell-based, Escherichia coli; details: tigemonam at 4 μg/mL
Experimental: (§1) Selected β-lactamase inhibitors were also tested for their ability to potentiate the monobactam tigemonam.

PAM2035 = assay: as above; type: cell-based, Pseudomonas aeruginosa; details: tigemonam at 4 μg/mL
Experimental: as §1

KP1007 OXA-10 = type: cell-based, Klebsiella pneumoniae; details: tigemonam at 4 μg/mL
Experimental: as §1

KPX1001 OXA-2 = type: cell-based; details: tigemonam at 4 μg/mL
Experimental: as §1

Structure (SMILES)	AZT MPC4 KPC-3 EC1007 (EC1007 KPC-3)	AZT MPC4 CTX-M-14 KP1005 [1]	AZT MPC4 CTX-M-15 KP1009 [1]	AZT MPC4 SHV-5 ec308 [1]	AZT MPC4 SHV-12 KP1010 [1]	AZT MPC4 SHV-18 KP1012 [1]	AZT MPC4 TEM-10 EC1009 [1]	AZT MPC4 TEM-10 ec302 [1]	AZT MPC4 TEM-26 ec304 [1]	AZT MPC@4 CMY-6 EC1010 [2]	AZT MPC@4 ECL1002 [2]	AZT MPC@4 OXA-2, KPX1001 [2]	AZT MPC@4 OXA-10, qnrB4 KP1007 [2]	AZT MPC@4 PAM2035 [2]	MPC4 CMY-6, EC1010 (EC1010 CMY-6)	MPC4 PAM2035 (PAM2035)	MPC4 OXA-10, KP1007 (KP1007 OXA-10)	MPC4 OXA-2, KPX1001 (KPX1001 OXA-2)
CCOC(=O)C[C@@H]1CC[C@H](NC(=O)Cc2cccs2)B(O)O1 [Compound 65, ethyl 2-((3R,6S)-2-hydroxy-3-(2-(thiophen-2-yl)acetamido)-1,2-oxaborinan-6-yl)acetate]	Z (key: X: MPC@4 of less than 5 μg/mL; Y: MPC@4 of 5 μg/mL to 20 μg/mL; Z: MPC@4 of greater than 20 μg/mL)	Z (key: X: MPC@4 of less than 5 μg/mL; Y: MPC@4 of 5 μg/mL to 20 μg/mL; Z: MPC@4 of greater than 20 μg/mL)	Z (key: X: MPC@4 of less than 5 μg/mL; Y: MPC@4 of 5 μg/mL to 20 μg/mL; Z: MPC@4 of greater than 20 μg/mL)	Z (key: X: MPC@4 of less than 5 μg/mL; Y: MPC@4 of 5 μg/mL to 20 μg/mL; Z: MPC@4 of greater than 20 μg/mL)	Z (key: X: MPC@4 of less than 5 μg/mL; Y: MPC@4 of 5 μg/mL to 20 μg/mL; Z: MPC@4 of greater than 20 μg/mL)	Z (key: X: MPC@4 of less than 5 μg/mL; Y: MPC@4 of 5 μg/mL to 20 μg/mL; Z: MPC@4 of greater than 20 μg/mL)	Z (key: X: MPC@4 of less than 5 μg/mL; Y: MPC@4 of 5 μg/mL to 20 μg/mL; Z: MPC@4 of greater than 20 μg/mL)	Z (key: X: MPC@4 of less than 5 μg/mL; Y: MPC@4 of 5 μg/mL to 20 μg/mL; Z: MPC@4 of greater than 20 μg/mL)	Z (key: X: MPC@4 of less than 5 μg/mL; Y: MPC@4 of 5 μg/mL to 20 μg/mL; Z: MPC@4 of greater than 20 μg/mL)	Z (key: X: MPC@4 of less than 5 μg/mL; Y: MPC@4 of 5 μg/mL to 20 μg/mL; Z: MPC@4 of greater than 20 μg/mL)	Z (key: X: MPC@4 of less than 5 μg/mL; Y: MPC@4 of 5 μg/mL to 20 μg/mL; Z: MPC@4 of greater than 20 μg/mL)	Z (key: X: MPC@4 of less than 5 μg/mL; Y: MPC@4 of 5 μg/mL to 20 μg/mL; Z: MPC@4 of greater than 20 μg/mL)	Z (key: X: MPC@4 of less than 5 μg/mL; Y: MPC@4 of 5 μg/mL to 20 μg/mL; Z: MPC@4 of greater than 20 μg/mL)	Z (key: X: MPC@4 of less than 5 μg/mL; Y: MPC@4 of 5 μg/mL to 20 μg/mL; Z: MPC@4 of greater than 20 μg/mL)				
O=C(O)C[C@@H]1CC[C@H](NC(=O)Cc2cc(F)cc(F)c2)B(O)O1 [Compound 66, 2-((3R,6S)-3-(2-(3,5-difluorophenyl)acetamido)-2-hydroxy-1,2-oxaborinan-6-yl)acetic acid]	X (key: X: MPC@4 of less than 5 μg/mL; Y: MPC@4 of 5 μg/mL to 20 μg/mL; Z: MPC@4 of greater than 20 μg/mL)	Z (key: X: MPC@4 of less than 5 μg/mL; Y: MPC@4 of 5 μg/mL to 20 μg/mL; Z: MPC@4 of greater than 20 μg/mL)	Z (key: X: MPC@4 of less than 5 μg/mL; Y: MPC@4 of 5 μg/mL to 20 μg/mL; Z: MPC@4 of greater than 20 μg/mL)	Z (key: X: MPC@4 of less than 5 μg/mL; Y: MPC@4 of 5 μg/mL to 20 μg/mL; Z: MPC@4 of greater than 20 μg/mL)	Z (key: X: MPC@4 of less than 5 μg/mL; Y: MPC@4 of 5 μg/mL to 20 μg/mL; Z: MPC@4 of greater than 20 μg/mL)	Z (key: X: MPC@4 of less than 5 μg/mL; Y: MPC@4 of 5 μg/mL to 20 μg/mL; Z: MPC@4 of greater than 20 μg/mL)	Z (key: X: MPC@4 of less than 5 μg/mL; Y: MPC@4 of 5 μg/mL to 20 μg/mL; Z: MPC@4 of greater than 20 μg/mL)	Z (key: X: MPC@4 of less than 5 μg/mL; Y: MPC@4 of 5 μg/mL to 20 μg/mL; Z: MPC@4 of greater than 20 μg/mL)	Z (key: X: MPC@4 of less than 5 μg/mL; Y: MPC@4 of 5 μg/mL to 20 μg/mL; Z: MPC@4 of greater than 20 μg/mL)	Z (key: X: MPC@4 of less than 5 μg/mL; Y: MPC@4 of 5 μg/mL to 20 μg/mL; Z: MPC@4 of greater than 20 μg/mL)	Z (key: X: MPC@4 of less than 5 μg/mL; Y: MPC@4 of 5 μg/mL to 20 μg/mL; Z: MPC@4 of greater than 20 μg/mL)	Z (key: X: MPC@4 of less than 5 μg/mL; Y: MPC@4 of 5 μg/mL to 20 μg/mL; Z: MPC@4 of greater than 20 μg/mL)	Z (key: X: MPC@4 of less than 5 μg/mL; Y: MPC@4 of 5 μg/mL to 20 μg/mL; Z: MPC@4 of greater than 20 μg/mL)	Z (key: X: MPC@4 of less than 5 μg/mL; Y: MPC@4 of 5 μg/mL to 20 μg/mL; Z: MPC@4 of greater than 20 μg/mL)				
O=C(O)C[C@@H]1C=CC[C@H](NC(=O)Cc2cccs2)B(O)O1 [Compound 67, 2-((3R,7R)-2-hydroxy-3-(2-(thiophen-2-yl)acetamido)-2,3,4,7-tetrahydro-1,2-oxaborepin-7-yl)acetic acid]															X (MPC@4 of less than 2 μg/mL)	X (MPC@4 of less than 2 μg/mL)	Z (MPC@4 of greater than 10 μg/mL)	X (MPC@4 of less than 2 μg/mL)
O=C(O)C[C@H]1C=CC[C@H](NC(=O)Cc2cccs2)B(O)O1 [Compound 68, 2-((3R,7S)-2-hydroxy-3-(2-(thiophen-2-yl)acetamido)-2,3,4,7-tetrahydro-1,2-oxaborepin-7-yl)acetic acid]															X (MPC@4 of less than 2 μg/mL)	Y (MPC@4 of 2 μg/mL to 10 μg/mL)	X (MPC@4 of less than 2 μg/mL)	X (MPC@4 of less than 2 μg/mL)
